Here are results for three substances from publication PMC9076634, “Fibronectin binding protein B binds to loricrin and promotes corneocyte adhesion by Staphylococcus aureus” (Nature Communications, 2022).

No constants are given. Whether binding was seen depends on the method and setting. A result given as binding can be weak or reduced; the word gives no strength. Where a sequence is shown, tags or fusion partners need not be part of it.

For the assay, the target named is T1, recombinant GST-tagged human loricrin (GST-loricrin) (human) (UniProt P23490).
T1 sequence: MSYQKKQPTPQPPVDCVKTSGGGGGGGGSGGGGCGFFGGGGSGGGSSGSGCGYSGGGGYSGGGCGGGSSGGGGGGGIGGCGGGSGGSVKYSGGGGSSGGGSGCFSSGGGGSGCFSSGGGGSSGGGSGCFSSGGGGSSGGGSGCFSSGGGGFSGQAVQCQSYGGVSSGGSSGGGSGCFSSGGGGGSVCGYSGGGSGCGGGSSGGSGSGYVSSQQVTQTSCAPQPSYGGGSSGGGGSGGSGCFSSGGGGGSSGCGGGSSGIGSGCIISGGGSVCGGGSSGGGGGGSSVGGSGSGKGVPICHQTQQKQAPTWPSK
Nature of the assay: bacterial adherence to coated wells (crystal violet); microtiter wells coated with GST-loricrin in 0.1 M NaHCO3 pH 9.6, blocked with 5% BSA; exponential-phase bacteria at OD600 1.0 in PBS, 2 h at 37 °C; absorbance at 570 nm; only the target purified.
Take “clumping factor B (ClfB) on S. aureus AD08 cells (mutant AD08∆fnbA∆fnbB) (from UniProt Q2FUY2)”: the binding result is reported as “binds”.
With “fibronectin binding protein A (FnBPA) on S. aureus AD08 cells (mutant AD08ΔclfBΔfnbB) (from UniProt P14738)”, the binding result is “no binding”.
Turning to “fibronectin binding protein B (FnBPB) on S. aureus AD08 cells (mutant AD08∆clfB∆fnbA) (from UniProt A0A0H2XKG3)”, the binding result is on record as “binds”.
